The assay addresses T1, MEX3A (human (human glioma cell lines; cells of the co-IP not stated)) (UniProt A1L020).
T1 sequence: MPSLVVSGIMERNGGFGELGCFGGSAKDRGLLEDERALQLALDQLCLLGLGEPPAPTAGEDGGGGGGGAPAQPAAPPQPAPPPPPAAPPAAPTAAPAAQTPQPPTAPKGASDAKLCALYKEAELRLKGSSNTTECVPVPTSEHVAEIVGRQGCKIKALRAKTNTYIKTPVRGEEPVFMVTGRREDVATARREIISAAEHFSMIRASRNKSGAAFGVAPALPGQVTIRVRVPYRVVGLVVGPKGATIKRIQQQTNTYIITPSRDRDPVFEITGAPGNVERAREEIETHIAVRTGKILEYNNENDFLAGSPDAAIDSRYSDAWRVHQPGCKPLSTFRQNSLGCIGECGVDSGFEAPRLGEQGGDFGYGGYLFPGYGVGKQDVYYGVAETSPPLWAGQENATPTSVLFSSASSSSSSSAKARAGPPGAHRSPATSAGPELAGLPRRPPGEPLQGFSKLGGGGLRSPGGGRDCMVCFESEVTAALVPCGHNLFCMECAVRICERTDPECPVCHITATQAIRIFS
The assay is described as follows: co-IP; no details given; cells, the precipitated protein and the antibodies are not stated.

Sequences of proteins named here, by UniProt entry; tags and fusion partners are left off. Residues count along the entry.
UniProt P13500, residues 24-99: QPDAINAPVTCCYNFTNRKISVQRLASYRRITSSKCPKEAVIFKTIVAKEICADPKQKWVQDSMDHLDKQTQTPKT

Results are given in words; binding and its absence hold for the method and conditions named. In cells and extracts the contact can be indirect. Some results given as binding are weak or reduced against the parent protein; the word gives no strength.

On to CCL2 (from UniProt P13500 24-99), for which the binding result is reported as “binds”.

The record behind these values is article PMC7791131.
